# From the supplement of paper PMC8728848
# This is one part of the list.
# B1: CBP21 (Serratia marcescens), O83009 (protein)
# chain: MNKTSRTLLSLGLLSAAMFGVSQQANAHGYVESPASRAYQCKLQLNTQCGSVQAEPQSVEGLKGFPQAGPADGHIASADKSTFFELDQQTPTRWNKLNLKTGPNSFTWKLTARHSTTSWRYFITKPNWDASQPLTRASFDLTPFCQFNDGGAIPAAQVTHQCNIPADRSGSHVILAVWDIADTANAFYQAIDVNLSK
# Key:
# Assay in all cases: glycan array binding signal (z-score within array); higher = stronger binding
# Settings in all cases: glycan notation: IUPAC condensed, linker removed; mutation: Y54A
# [1] = target: Neu5Ac(a2-3)Gal(b1-4)GlcNAc(b1-3)[Neu5Ac(a2-3)Gal(b1-4)GlcNAc(b1-6)]GalNAc
# Method in brief: (§1)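 Glycan array binding is given as a within-array Z-score, which can be read as non-binding when negative. The arrays, 3228 of them, came from the Consortium for Functional Glycomics database and were retained only where the protein sequence was available. Z-scores were averaged across arrays of the same protein sequence at different concentrations or buffers and across linkers.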
# [2] = target: Neu5Ac(a2-3)Gal(b1-4)GlcNAc(b1-6)GalNAc
# Method in brief: as §1
# [3] = target: Neu5Ac(a2-3)Gal(b1-4)GlcNAc(b1-6)[Gal(b1-3)]GalNAc
# Method in brief: as §1
# [4] = target: Neu5Ac(a2-3)Gal(b1-4)GlcNAc(b1-6)[Neu5Ac(a2-3)Gal(b1-3)]GalNAc
# Method in brief: as §1
# [5] = target: Neu5Ac(a2-3)Gal(b1-4)GlcNAc6S
# Method in brief: as §1
# [6] = target: Neu5Ac(a2-3)Gal(b1-4)[Fuc(a1-3)]GlcNAc
# Method in brief: as §1
# [7] = target: Neu5Ac(a2-3)Gal(b1-4)[Fuc(a1-3)]GlcNAc(b1-2)Man
# Method in brief: as §1
# [8] = target: Neu5Ac(a2-3)Gal(b1-4)[Fuc(a1-3)]GlcNAc(b1-3)Gal
# Method in brief: as §1
# [9] = target: Neu5Ac(a2-3)Gal(b1-4)[Fuc(a1-3)]GlcNAc(b1-3)Gal(b1-4)GlcNAc
# Method in brief: as §1
# [10] = target: Neu5Ac(a2-3)Gal(b1-4)[Fuc(a1-3)]GlcNAc(b1-3)Gal(b1-4)[Fuc(a1-3)]GlcNAc(b1-3)Gal(b1-4)[Fuc(a1-3)]GlcNAc
# Method in brief: as §1
# [11] = target: Neu5Ac(a2-3)Gal(b1-4)[Fuc(a1-3)]GlcNAc(b1-3)GalNAc
# Method in brief: as §1
# [12] = target: Neu5Ac(a2-3)Gal(b1-4)[Fuc(a1-3)]GlcNAc(b1-6)[Gal(b1-3)]GalNAc
# Method in brief: as §1
# [13] = target: Neu5Ac(a2-3)Gal(b1-4)[Fuc(a1-3)]GlcNAc(b1-6)[Neu5Ac(a2-3)Gal(b1-3)]GalNAc
# Method in brief: as §1
# [14] = target: Neu5Ac(a2-3)Gal(b1-4)[Fuc(a1-3)]GlcNAc6S
# Method in brief: as §1
# [15] = target: Neu5Ac(a2-3)Gal6S(b1-4)GlcNAc
# Method in brief: as §1
# [16] = target: Neu5Ac(a2-3)Gal6S(b1-4)[Fuc(a1-3)]GlcNAc
# Method in brief: as §1
# Neu5Ac(a2-3)GalNAc = target: Neu5Ac(a2-3)GalNAc
# Method in brief: as §1
# [17] = target: Neu5Ac(a2-3)GalNAc(b1-4)GlcNAc
# Method in brief: as §1
# [18] = target: Neu5Ac(a2-3)[GalNAc(b1-4)]Gal(b1-4)Glc
# Method in brief: as §1
# [19] = target: Neu5Ac(a2-3)[GalNAc(b1-4)]Gal(b1-4)GlcNAc
# Method in brief: as §1
# [20] = target: Neu5Ac(a2-3)[GalNAc(b1-4)]Gal(b1-4)GlcNAc(b1-3)GalNAc
# Method in brief: as §1
# [21] = target: Neu5Ac(a2-3)[Neu5Ac(a2-6)]GalNAc
# Method in brief: as §1
# Neu5Ac(a2-6)Gal = target: Neu5Ac(a2-6)Gal
# Method in brief: as §1
# [22] = target: Neu5Ac(a2-6)Gal(b1-3)GlcNAc(b1-3)[Gal(b1-4)GlcNAc(b1-6)]Gal(b1-4)Glc
# Method in brief: as §1
# Neu5Ac(a2-6)Gal(b1-4)Glc = target: Neu5Ac(a2-6)Gal(b1-4)Glc
# Method in brief: as §1
# [23] = target: Neu5Ac(a2-6)Gal(b1-4)GlcNAc
# Method in brief: as §1
# [24] = target: Neu5Ac(a2-6)Gal(b1-4)GlcNAc(b1-2)Man
# Method in brief: as §1
# [25] = target: Neu5Ac(a2-6)Gal(b1-4)GlcNAc(b1-2)Man(a1-3)Man(b1-4)GlcNAc(b1-4)GlcNAc
# Method in brief: as §1
# [26] = target: Neu5Ac(a2-6)Gal(b1-4)GlcNAc(b1-2)Man(a1-3)[Gal(b1-4)GlcNAc(b1-2)Man(a1-6)]Man(b1-4)GlcNAc(b1-4)GlcNAc
# Method in brief: as §1
# [27] = target: Neu5Ac(a2-6)Gal(b1-4)GlcNAc(b1-2)Man(a1-3)[GlcNAc(b1-2)Man(a1-6)]Man(b1-4)GlcNAc(b1-4)GlcNAc
# Method in brief: as §1
# [28] = target: Neu5Ac(a2-6)Gal(b1-4)GlcNAc(b1-2)Man(a1-3)[GlcNAc(b1-4)][Neu5Ac(a2-6)Gal(b1-4)GlcNAc(b1-2)Man(a1-6)]Man(b1-4)GlcNAc(b1-4)GlcNAc
# Method in brief: as §1
# [29] = target: Neu5Ac(a2-6)Gal(b1-4)GlcNAc(b1-2)Man(a1-3)[Man(a1-6)]Man(b1-4)GlcNAc(b1-4)GlcNAc
# Method in brief: as §1
# [30] = target: Neu5Ac(a2-6)Gal(b1-4)GlcNAc(b1-2)Man(a1-3)[Neu5Ac(a2-3)Gal(b1-4)GlcNAc(b1-2)Man(a1-6)]Man(b1-4)GlcNAc(b1-4)GlcNAc
# Method in brief: as §1
# [31] = target: Neu5Ac(a2-6)Gal(b1-4)GlcNAc(b1-2)Man(a1-3)[Neu5Ac(a2-6)Gal(b1-4)GlcNAc(b1-2)Man(a1-6)]Man(b1-4)GlcNAc(b1-4)GlcNAc
# Method in brief: as §1
# [32] = target: Neu5Ac(a2-6)Gal(b1-4)GlcNAc(b1-2)Man(a1-3)[Neu5Ac(a2-6)Gal(b1-4)GlcNAc(b1-2)Man(a1-6)]Man(b1-4)GlcNAc(b1-4)[Fuc(a1-6)]GlcNAc
# Method in brief: as §1
# [33] = target: Neu5Ac(a2-6)Gal(b1-4)GlcNAc(b1-2)Man(a1-6)Man(b1-4)GlcNAc(b1-4)GlcNAc
# Method in brief: as §1
# [34] = target: Neu5Ac(a2-6)Gal(b1-4)GlcNAc(b1-2)Man(a1-6)[Gal(b1-4)GlcNAc(b1-2)Man(a1-3)]Man(b1-4)GlcNAc(b1-4)GlcNAc
# Method in brief: as §1
# [35] = target: Neu5Ac(a2-6)Gal(b1-4)GlcNAc(b1-2)Man(a1-6)[GlcNAc(b1-2)Man(a1-3)]Man(b1-4)GlcNAc(b1-4)GlcNAc
# Method in brief: as §1
# [36] = target: Neu5Ac(a2-6)Gal(b1-4)GlcNAc(b1-2)Man(a1-6)[Man(a1-3)]Man(b1-4)GlcNAc(b1-4)GlcNAc
# Method in brief: as §1
# [37] = target: Neu5Ac(a2-6)Gal(b1-4)GlcNAc(b1-2)[Neu5Ac(a2-6)Gal(b1-4)GlcNAc(b1-4)]Man(a1-3)[GlcNAc(b1-4)][Neu5Ac(a2-6)Gal(b1-4)GlcNAc(b1-2)[Neu5Ac(a2-6)Gal(b1-4)GlcNAc(b1-6)]Man(a1-6)]Man(b1-4)GlcNAc(b1-4)GlcNAc
# Method in brief: as §1
# [38] = target: Neu5Ac(a2-6)Gal(b1-4)GlcNAc(b1-2)[Neu5Ac(a2-6)Gal(b1-4)GlcNAc(b1-4)]Man(a1-3)[GlcNAc(b1-4)][Neu5Ac(a2-6)Gal(b1-4)GlcNAc(b1-4)Man(a1-6)]Man(b1-4)GlcNAc(b1-4)GlcNAc
# Method in brief: as §1
# [39] = target: Neu5Ac(a2-6)Gal(b1-4)GlcNAc(b1-2)[Neu5Ac(a2-6)Gal(b1-4)GlcNAc(b1-6)]Man(a1-6)[Neu5Ac(a2-6)Gal(b1-4)GlcNAc(b1-2)Man(a1-3)][GlcNAc(b1-4)]Man(b1-4)GlcNAc(b1-4)GlcNAc
# Method in brief: as §1
# [40] = target: Neu5Ac(a2-6)Gal(b1-4)GlcNAc(b1-3)Gal(b1-3)GlcNAc
# Method in brief: as §1
# [41] = target: Neu5Ac(a2-6)Gal(b1-4)GlcNAc(b1-3)Gal(b1-4)GlcNAc
# Method in brief: as §1
# [42] = target: Neu5Ac(a2-6)Gal(b1-4)GlcNAc(b1-3)Gal(b1-4)GlcNAc(b1-2)Man(a1-3)[Neu5Ac(a2-6)Gal(b1-4)GlcNAc(b1-3)Gal(b1-4)GlcNAc(b1-2)Man(a1-6)]GalNAc
# Method in brief: as §1
binder,measurement,setting,value
B1,glycan array binding signal (z-score),[1],1.31
same,glycan array binding signal (z-score),[2],-0.781
same,glycan array binding signal (z-score),[3],-0.164
same,glycan array binding signal (z-score),[4],-0.744
same,glycan array binding signal (z-score),[5],0.409
same,glycan array binding signal (z-score),[6],-0.628
same,glycan array binding signal (z-score),[7],0.87
same,glycan array binding signal (z-score),[8],-0.143
same,glycan array binding signal (z-score),[9],-0.566
same,glycan array binding signal (z-score),[10],-0.011
same,glycan array binding signal (z-score),[11],0.503
same,glycan array binding signal (z-score),[12],0.002
same,glycan array binding signal (z-score),[13],-0.287
same,glycan array binding signal (z-score),[14],-0.225
same,glycan array binding signal (z-score),[15],4.07
same,glycan array binding signal (z-score),[16],-0.037
same,glycan array binding signal (z-score),Neu5Ac(a2-3)GalNAc,-0.301
same,glycan array binding signal (z-score),[17],-1.04
same,glycan array binding signal (z-score),[18],-0.588
same,glycan array binding signal (z-score),[19],-0.321
same,glycan array binding signal (z-score),[20],-1.33
same,glycan array binding signal (z-score),[21],-0.082
same,glycan array binding signal (z-score),Neu5Ac(a2-6)Gal,-0.427
same,glycan array binding signal (z-score),[22],-0.973
same,glycan array binding signal (z-score),Neu5Ac(a2-6)Gal(b1-4)Glc,-0.381
same,glycan array binding signal (z-score),[23],-0.417
same,glycan array binding signal (z-score),[24],-0.238
same,glycan array binding signal (z-score),[25],-0.57
same,glycan array binding signal (z-score),[26],-0.353
same,glycan array binding signal (z-score),[27],-0.716
same,glycan array binding signal (z-score),[28],-0.098
same,glycan array binding signal (z-score),[29],-0.577
same,glycan array binding signal (z-score),[30],1.69
same,glycan array binding signal (z-score),[31],0.116
same,glycan array binding signal (z-score),[32],-0.376
same,glycan array binding signal (z-score),[33],-0.554
same,glycan array binding signal (z-score),[34],0.306
same,glycan array binding signal (z-score),[35],-0.508
same,glycan array binding signal (z-score),[36],0.138
same,glycan array binding signal (z-score),[37],0.142
same,glycan array binding signal (z-score),[38],-0.859
same,glycan array binding signal (z-score),[39],-0.337
same,glycan array binding signal (z-score),[40],-0.558
same,glycan array binding signal (z-score),[41],-0.539
same,glycan array binding signal (z-score),[42],0.107

# Fetched one by one from above, four records:
binder,measurement,setting,value
B1,glycan array binding signal (z-score),[13],-0.287
same,glycan array binding signal (z-score),[7],0.87
same,glycan array binding signal (z-score),[18],-0.588
same,glycan array binding signal (z-score),[3],-0.164
